Data as given in PubChem BioAssay AID1259268 (Sanger Institute, 2017).
In all, the deposit lists 160 reagents; below is an unselected part. In the full data, 58 (36%) were called active. 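Trametinib by itself roughly halved viability, making its arm harsher than the cetuximab and BYL719 arms.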 The numbers tell different reagents against one gene apart. Not all columns of the deposit are shown. Not stated in the record: the amount of reagent, the time to read-out.

Test: 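Kinase silencing that acts in synergy with trametinib, cetuximab or BYL719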 (follow-up of hits)
Cell system: human SNUC1 colorectal cancer cells
Reagent: single siRNA against human genes
Challenge: anchor drugs added a day after transfection: BYL719 1 µM, cetuximab 5 µg/ml or trametinib 10 nM, versus DMSO vehicle
Measurement: 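Mean viability per well relative to non-targeting pool 2 siRNA, plus a synergy score weighing the joint knock-down and drug effect against each effect alone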
Reading the numbers: synergy score with trametinib and synergy score with cetuximab and synergy score with BYL719: higher = stronger synergy of knock-down with drug
Active means: 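Active if the synergy score is above 0.10 for at least one of the three drugs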
Meaning of the calls: active = synergy with at least one drug; inactive = no synergy with any drug

no.	target	siRNA no.	synergy score with trametinib	synergy score with cetuximab	synergy score with BYL719	Outcome
1	GTF2H1	1	-0.0556	-0.0994	-0.294	inactive
2	GTF2H1	2	-0.0476	-0.0663	-0.23	inactive
3	GTF2H1	3	-0.0209	-0.0663	-0.122	inactive
4	GTF2H1	4	0.0572	-0.00377	-0.0864	inactive
5	MAPK4	1	0.0561	0.0425	-0.0463	inactive
6	MAPK4	2	0.00816	-0.0692	0.0311	inactive
7	MAPK4	3	0.025	-0.0802	-0.141	inactive
8	MAPK4	4	0.0573	-0.0253	-0.0177	inactive
9	ACVR1	1	-0.0471	-0.329	-0.42	inactive
10	ACVR1	2	-0.00155	-0.194	-0.154	inactive
11	ACVR1	3	0.142	-0.0663	-0.196	active
12	ACVR1	4	0.297	-0.0839	-0.285	active
13	STK36	1	0.126	-0.0663	-0.0537	active
14	STK36	2	0.06	-0.125	-0.361	inactive
15	STK36	3	-0.112	-0.108	-0.313	inactive
16	STK36	4	-0.0229	-0.262	-0.391	inactive
17	EPHA6	1	0.153	-0.0527	-0.172	active
18	EPHA6	2	-0.0406	-0.0035	-0.0807	inactive
19	EPHA6	3	0.0605	0.0722	0.0146	inactive
20	EPHA6	4	0.0489	-0.0663	-0.00871	inactive
21	RPS6KA4	1	0.124	0.23	-0.192	active
22	RPS6KA4	2	0.253	0.116	-0.138	active
23	RPS6KA4	3	0.0267	-0.216	-0.233	inactive
24	RPS6KA4	4	0.0325	-0.0348	-0.0829	inactive
25	IRAK1	1	0.151	0.0653	0.169	active
26	IRAK1	2	0.0205	-0.0554	-0.0424	inactive
27	IRAK1	3	0.129	-0.0627	-0.127	active
28	IRAK1	4	-0.0197	-0.02	-0.0761	inactive
29	MARK3	1	-0.0462	-0.0868	-0.18	inactive
30	MARK3	2	-0.0641	-0.0663	-0.23	inactive
31	MARK3	3	0.0236	-0.154	-0.33	inactive
32	MARK3	4	0.0276	-0.107	-0.359	inactive
33	AK2	1	0.204	-0.00444	0.044	active
34	AK2	2	0.198	-0.0663	-0.23	active
35	AK2	3	-0.0435	-0.0567	-0.23	inactive
36	AK2	4	0.292	0.0236	-0.172	active
37	PIK3CA	1	0.0799	0.0811	0.0682	inactive
38	PIK3CA	2	0.0568	0.0244	-0.04	inactive
39	PIK3CA	3	0.0848	-0.0893	-0.178	inactive
40	PIK3CA	4	0.0982	0.0822	-0.047	inactive

Part of the list above, reformatted.
ACVR1 #3
- synergy score with trametinib: 0.142
- synergy score with cetuximab: -0.0663
- synergy score with BYL719: -0.196
- Outcome: active

ACVR1 #4
- synergy score with trametinib: 0.297
- synergy score with cetuximab: -0.0839
- synergy score with BYL719: -0.285
- Outcome: active
